Laboratory results as given in patent US20160311870A1 (SWEDISH ORPHAN BIOVITRUM AB PUBL, published 2016).
No constants are given. Whether binding was seen depends on the method and setting. Some entries that bind do so weakly or less than the wild type.

Chains of the proteins cited; added tags and fusions are not shown. Lines headed by an entry give the natural chain unless they say otherwise; changes in a name come on top.
UniProt P55899: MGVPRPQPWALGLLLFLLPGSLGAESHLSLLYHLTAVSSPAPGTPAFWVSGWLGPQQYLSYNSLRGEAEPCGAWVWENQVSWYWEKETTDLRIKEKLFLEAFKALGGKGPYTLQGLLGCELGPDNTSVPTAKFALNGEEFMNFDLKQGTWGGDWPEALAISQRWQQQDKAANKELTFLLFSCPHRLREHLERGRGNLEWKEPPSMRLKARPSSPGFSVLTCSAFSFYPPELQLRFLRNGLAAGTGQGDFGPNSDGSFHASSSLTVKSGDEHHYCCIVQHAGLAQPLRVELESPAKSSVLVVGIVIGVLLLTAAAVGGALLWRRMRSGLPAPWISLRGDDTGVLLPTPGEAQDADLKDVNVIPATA

Assays:
Assay in all cases: method not given
[1] = target: human epidermal growth factor receptor 2 (HER2) (human) (UniProt P04626)
[2] = target: platelet-derived growth factor receptor beta (PDGF-Rβ) (Homo sapiens (Human)) (UniProt P09619)
[3] = target: neonatal Fc receptor (FcRn) (Homo sapiens (Human)) (UniProt P55899)

B1: Z17342 (designed binder)
chain: MGSSHHHHHHLQAEAKYAKEMRNAYWEIALLPNLTNQQKRAFIRKLYRQPEQSSELLSEAKKLSESQAPK
binding [1]: binds

B2: Z17344 (designed binder)
chain: MGSSHHHHHHLQAEAKYAKELIEAAAEIDALPNLTRRQWNAFIKKLVRQPEQSSELLSEAKKLSESQAPK
binding [2]: binds

B3: Z17348 (designed binder)
chain: MGSSHHHHHHLQAEAKYAKEQDAAAHEIRWLPNLTFDQRVAFIHKLARQPEQSSELLSEAKKLSESQAPK
binding [3]: binds
